From PMC4240632 come the findings set out here.

The assay addresses T1, dBRE1 (Drosophila (endogenous in embryos)) (UniProt Q9VRP9).
T1 sequence: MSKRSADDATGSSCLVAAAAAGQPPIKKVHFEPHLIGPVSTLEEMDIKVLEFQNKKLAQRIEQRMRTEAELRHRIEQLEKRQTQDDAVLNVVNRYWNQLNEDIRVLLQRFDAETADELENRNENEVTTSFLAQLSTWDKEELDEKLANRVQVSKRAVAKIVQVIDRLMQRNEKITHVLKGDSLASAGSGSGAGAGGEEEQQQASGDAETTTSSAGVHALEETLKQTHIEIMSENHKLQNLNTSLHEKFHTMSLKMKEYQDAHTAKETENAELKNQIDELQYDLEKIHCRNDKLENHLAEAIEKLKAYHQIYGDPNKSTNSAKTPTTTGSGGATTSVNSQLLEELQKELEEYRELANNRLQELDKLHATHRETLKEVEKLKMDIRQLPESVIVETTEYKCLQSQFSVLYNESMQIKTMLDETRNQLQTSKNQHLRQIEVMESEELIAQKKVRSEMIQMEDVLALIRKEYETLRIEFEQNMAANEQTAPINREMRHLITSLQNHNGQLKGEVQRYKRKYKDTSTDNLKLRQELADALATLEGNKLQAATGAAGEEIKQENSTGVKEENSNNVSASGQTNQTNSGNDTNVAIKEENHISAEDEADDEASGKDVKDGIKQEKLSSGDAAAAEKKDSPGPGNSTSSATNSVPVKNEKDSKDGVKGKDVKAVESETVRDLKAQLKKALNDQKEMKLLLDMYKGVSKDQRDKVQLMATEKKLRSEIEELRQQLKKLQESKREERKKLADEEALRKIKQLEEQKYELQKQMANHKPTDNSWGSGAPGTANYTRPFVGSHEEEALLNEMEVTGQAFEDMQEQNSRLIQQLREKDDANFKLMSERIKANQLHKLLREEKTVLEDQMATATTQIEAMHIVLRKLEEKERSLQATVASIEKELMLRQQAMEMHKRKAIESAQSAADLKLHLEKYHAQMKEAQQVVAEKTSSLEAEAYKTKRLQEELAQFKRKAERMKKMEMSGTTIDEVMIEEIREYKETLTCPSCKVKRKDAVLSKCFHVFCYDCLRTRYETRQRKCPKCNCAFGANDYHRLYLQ
The experiment in a line: co-IP; Drosophila embryonic nuclear protein extracts; IP with antibodies against the endogenous proteins (dRYBP, SCE, dKDM2, dBRE1; reverse: PSC, PC, PH, E(Z)); Western blot; mock: pre-immune serum. On the technique in general: In western blotting, separated proteins are transferred to a membrane and probed.

No constants are given. Whether binding was seen depends on the method and setting. In cells and extracts the contact can be indirect.

B1: SCE (protein, UniProt Q9VB08 1-435)
chain: MTSLDPAPNKTWELSLYELQRKPQEVITDSTEIAVSPRSLHSELMCPICLDMLKKTMTTKECLHRFCSDCIVTALRSGNKECPTCRKKLVSKRSLRADPNFDLLISKIYPSREEYEAIQEKVMAKFNQTQSQQALVNSINEGIKLQSQNRPQRFRTKGGGGGGGGGGNGNGAANVAAPPAPGAPTAVGRNASNQMHVHDTASNDSNSNTNSIDRENRDPGHSGTSAASAITSASNAAPSSSANSGASTSATRMQVDDASNPPSVRSTPSPVPSNSSSSKPKRAMSVLTSERSEESESDSQMDCRTEGDSNIDTEGEGNGELGINDEIELVFKPHPTEMSADNQLIRALKENCVRYIKTTANATVDHLSKYLAMRLTLDLGADLPEACRVLNFCIYVAPQPQQLVILNGNQTLHQVNDKFWKVNKPMEMYYSWKKT
Turning to B1, the binding result is “no binding”.
